The results in this text go back to the supplement of paper PMC6411743.

Amino acid sequences for entries named in this document (tags omitted). A change or cut given only in a name is not applied to a line headed by its entry.
UniProt Q9GZT6: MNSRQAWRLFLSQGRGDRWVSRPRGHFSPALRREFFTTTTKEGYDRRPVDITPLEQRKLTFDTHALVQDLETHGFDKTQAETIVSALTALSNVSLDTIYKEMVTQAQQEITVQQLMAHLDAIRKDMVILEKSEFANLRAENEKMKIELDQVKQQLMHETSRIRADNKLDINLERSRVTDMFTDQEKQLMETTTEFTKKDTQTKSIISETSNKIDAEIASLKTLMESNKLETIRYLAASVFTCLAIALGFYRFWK
UniProt Q14203, whole entry: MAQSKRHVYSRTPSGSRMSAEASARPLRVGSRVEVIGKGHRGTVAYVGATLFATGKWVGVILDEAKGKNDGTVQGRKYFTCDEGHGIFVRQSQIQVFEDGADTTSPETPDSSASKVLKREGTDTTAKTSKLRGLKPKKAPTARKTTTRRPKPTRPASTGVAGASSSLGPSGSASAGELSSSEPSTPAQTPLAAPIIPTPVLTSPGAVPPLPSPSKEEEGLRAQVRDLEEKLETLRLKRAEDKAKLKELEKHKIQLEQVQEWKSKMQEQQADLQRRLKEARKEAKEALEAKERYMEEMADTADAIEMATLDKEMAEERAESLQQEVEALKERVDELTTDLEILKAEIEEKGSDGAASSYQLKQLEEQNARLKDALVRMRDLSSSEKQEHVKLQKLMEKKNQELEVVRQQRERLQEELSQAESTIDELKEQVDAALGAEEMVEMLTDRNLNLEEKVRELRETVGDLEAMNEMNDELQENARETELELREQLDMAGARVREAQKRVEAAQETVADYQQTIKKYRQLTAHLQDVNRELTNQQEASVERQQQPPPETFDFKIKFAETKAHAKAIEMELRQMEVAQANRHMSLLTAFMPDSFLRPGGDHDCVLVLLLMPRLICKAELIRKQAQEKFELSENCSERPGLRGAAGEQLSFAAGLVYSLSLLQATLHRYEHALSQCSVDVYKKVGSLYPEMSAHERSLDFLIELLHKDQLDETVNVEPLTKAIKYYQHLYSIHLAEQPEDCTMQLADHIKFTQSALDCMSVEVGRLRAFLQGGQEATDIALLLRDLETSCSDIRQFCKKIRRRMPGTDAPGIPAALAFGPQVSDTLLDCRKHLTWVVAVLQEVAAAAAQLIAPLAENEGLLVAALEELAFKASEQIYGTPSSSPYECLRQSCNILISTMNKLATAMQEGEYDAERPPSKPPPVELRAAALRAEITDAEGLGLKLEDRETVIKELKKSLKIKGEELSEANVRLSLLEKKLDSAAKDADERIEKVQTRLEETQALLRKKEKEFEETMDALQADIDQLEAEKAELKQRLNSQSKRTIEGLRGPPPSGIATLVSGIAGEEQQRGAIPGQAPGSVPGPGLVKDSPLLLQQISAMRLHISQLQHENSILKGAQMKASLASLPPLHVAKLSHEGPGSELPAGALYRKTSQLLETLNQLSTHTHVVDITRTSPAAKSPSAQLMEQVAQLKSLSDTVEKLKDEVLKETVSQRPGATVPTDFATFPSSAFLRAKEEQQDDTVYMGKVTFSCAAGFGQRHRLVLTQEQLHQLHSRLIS
UniProt Q86UB9: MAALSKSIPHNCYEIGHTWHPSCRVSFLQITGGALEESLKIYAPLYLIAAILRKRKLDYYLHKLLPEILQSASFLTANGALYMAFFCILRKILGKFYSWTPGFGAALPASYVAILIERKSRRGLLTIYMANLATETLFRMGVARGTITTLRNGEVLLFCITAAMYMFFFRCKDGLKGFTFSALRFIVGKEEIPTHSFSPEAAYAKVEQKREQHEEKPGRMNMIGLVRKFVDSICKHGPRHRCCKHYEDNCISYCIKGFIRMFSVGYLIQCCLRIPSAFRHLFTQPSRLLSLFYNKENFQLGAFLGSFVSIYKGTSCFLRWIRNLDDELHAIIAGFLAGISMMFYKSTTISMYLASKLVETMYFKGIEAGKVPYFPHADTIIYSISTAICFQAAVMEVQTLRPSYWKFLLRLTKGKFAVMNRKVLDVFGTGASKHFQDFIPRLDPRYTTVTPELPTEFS
UniProt Q9Y6M9, whole entry: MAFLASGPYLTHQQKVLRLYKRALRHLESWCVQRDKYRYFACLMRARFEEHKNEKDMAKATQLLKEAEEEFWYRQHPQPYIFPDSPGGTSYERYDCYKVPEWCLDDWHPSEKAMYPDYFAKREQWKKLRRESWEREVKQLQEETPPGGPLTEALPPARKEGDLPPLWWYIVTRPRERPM
UniProt Q9Y4P3: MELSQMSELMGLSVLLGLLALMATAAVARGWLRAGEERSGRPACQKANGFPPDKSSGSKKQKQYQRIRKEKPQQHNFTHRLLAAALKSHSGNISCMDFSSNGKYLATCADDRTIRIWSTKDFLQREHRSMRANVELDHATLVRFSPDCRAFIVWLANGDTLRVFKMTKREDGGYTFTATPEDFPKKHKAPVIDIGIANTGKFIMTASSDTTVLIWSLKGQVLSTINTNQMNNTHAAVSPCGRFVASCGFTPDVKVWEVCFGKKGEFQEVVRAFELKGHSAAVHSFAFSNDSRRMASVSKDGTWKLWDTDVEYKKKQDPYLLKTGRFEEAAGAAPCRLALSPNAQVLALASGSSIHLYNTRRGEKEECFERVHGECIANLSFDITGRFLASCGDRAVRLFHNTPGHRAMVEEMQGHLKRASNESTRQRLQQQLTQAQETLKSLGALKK
UniProt Q8N4H5: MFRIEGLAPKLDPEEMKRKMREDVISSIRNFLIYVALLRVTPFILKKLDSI
UniProt Q5JPF3: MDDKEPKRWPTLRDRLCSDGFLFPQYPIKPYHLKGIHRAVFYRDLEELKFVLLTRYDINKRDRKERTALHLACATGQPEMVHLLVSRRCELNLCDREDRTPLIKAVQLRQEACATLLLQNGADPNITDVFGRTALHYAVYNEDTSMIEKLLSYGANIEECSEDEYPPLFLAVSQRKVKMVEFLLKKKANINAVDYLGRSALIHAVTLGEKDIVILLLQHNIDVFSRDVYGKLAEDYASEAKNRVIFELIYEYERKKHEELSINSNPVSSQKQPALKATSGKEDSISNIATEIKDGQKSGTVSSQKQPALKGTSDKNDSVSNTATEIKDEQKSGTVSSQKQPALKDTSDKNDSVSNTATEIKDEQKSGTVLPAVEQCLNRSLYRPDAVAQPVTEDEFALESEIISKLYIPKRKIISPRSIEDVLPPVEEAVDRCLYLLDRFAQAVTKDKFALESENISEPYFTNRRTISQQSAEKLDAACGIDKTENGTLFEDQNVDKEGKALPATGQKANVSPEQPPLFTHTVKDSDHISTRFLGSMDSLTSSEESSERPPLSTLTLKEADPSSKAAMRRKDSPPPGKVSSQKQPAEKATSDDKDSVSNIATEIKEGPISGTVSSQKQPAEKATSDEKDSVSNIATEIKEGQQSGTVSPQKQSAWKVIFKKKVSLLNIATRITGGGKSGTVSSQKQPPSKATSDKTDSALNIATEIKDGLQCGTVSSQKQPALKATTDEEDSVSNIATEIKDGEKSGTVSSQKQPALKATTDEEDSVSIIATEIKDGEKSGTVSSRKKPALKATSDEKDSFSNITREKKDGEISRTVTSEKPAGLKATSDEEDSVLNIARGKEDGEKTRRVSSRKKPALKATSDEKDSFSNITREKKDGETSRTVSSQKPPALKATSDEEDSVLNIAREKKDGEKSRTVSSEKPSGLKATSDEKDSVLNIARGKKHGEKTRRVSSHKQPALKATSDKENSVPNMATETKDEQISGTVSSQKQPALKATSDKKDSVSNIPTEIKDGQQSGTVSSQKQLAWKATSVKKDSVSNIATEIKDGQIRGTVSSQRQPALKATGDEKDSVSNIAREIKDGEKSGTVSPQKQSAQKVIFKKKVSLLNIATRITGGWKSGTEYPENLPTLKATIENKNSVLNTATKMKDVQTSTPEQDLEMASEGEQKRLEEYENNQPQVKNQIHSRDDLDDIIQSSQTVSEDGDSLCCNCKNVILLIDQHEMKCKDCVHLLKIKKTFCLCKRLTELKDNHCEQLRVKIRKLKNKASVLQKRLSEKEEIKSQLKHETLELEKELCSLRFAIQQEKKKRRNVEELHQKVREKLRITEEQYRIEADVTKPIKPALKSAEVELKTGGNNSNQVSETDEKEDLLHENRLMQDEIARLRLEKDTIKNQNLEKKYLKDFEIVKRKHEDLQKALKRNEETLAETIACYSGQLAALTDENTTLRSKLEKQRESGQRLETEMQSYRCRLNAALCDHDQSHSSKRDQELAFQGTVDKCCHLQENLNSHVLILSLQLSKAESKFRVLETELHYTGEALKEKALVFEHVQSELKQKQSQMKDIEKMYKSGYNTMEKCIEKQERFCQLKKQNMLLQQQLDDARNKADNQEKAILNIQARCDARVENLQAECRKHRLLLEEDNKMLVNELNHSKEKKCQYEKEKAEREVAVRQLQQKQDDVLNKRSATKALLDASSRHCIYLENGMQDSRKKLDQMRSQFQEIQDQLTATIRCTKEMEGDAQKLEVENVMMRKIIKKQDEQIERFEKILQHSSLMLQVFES
UniProt P11413, whole entry: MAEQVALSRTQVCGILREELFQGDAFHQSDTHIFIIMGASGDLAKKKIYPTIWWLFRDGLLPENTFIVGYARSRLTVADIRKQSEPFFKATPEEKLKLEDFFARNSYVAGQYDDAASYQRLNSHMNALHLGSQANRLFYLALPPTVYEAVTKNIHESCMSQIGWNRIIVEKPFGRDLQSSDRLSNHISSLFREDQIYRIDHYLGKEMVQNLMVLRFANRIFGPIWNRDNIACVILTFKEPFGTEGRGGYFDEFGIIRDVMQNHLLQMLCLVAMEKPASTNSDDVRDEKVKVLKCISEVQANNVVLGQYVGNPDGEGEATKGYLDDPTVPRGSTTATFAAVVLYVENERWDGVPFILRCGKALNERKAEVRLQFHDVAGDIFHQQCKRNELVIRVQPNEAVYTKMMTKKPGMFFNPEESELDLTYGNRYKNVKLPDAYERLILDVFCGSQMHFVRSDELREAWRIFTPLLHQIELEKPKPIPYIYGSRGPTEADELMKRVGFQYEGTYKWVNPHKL
UniProt Q9GZZ1: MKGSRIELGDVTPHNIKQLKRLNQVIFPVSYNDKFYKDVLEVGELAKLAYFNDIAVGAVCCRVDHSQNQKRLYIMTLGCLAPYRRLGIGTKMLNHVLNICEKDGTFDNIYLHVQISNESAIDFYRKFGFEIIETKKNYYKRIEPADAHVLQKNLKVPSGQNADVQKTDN
UniProt Q9NZD2: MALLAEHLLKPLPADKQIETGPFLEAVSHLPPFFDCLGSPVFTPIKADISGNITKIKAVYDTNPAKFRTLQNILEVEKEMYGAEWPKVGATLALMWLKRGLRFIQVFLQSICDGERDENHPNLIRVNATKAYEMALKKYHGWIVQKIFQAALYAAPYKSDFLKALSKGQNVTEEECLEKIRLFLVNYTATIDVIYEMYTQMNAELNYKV
UniProt Q07866: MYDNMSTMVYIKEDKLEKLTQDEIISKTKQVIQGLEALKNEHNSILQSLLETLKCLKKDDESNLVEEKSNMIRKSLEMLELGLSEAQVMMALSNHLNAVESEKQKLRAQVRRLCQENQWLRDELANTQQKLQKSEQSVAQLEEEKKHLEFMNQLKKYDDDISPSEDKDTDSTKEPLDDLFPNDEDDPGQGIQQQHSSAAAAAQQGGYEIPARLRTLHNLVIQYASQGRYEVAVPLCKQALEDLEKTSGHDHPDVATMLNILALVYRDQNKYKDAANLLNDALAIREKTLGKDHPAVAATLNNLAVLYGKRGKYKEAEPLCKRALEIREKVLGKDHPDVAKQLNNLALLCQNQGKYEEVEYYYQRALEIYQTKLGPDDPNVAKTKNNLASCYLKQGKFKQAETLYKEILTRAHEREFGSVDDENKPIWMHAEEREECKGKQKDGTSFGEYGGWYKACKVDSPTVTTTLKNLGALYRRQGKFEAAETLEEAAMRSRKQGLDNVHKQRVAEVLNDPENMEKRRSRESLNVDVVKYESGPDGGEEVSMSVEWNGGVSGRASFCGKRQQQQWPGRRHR
UniProt P23588, whole entry: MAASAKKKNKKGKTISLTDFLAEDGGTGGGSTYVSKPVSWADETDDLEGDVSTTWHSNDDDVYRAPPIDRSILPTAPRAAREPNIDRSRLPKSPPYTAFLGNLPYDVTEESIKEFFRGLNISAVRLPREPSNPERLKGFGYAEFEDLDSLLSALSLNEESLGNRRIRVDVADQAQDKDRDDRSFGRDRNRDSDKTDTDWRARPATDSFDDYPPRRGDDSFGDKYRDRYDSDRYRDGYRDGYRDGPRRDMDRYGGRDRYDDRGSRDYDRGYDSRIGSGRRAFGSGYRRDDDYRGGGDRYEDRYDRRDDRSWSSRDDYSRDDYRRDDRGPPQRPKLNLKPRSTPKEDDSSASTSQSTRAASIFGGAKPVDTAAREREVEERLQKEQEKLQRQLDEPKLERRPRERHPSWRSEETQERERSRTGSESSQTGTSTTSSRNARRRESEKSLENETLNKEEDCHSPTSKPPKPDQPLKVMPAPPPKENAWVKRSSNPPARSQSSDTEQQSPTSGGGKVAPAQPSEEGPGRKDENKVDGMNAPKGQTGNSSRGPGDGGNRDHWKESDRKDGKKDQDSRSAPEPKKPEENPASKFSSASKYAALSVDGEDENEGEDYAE

Compound in the assay: Nc1ncnc2c1ncn2[C@@H]1O[C@H](COP(=O)(O)OP(=O)(O)NP(=O)(O)O)[C@@H](O)[C@H]1O [adenylyl imidodiphosphate]
Description: NP40-soluble protein abundance relative to vehicle (solubility fold change) (ratio); higher = more soluble protein in presence of AMP-PNP. Put shortly: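 Data come from three independent experiments in which Dounce-homogenised Jurkat crude lysate was treated at eight concentrations from 0.1 to 10 mM. Treatment ran 10 min at room temperature and then 3 min at 37 °C, after which 0.8% NP40 and benzonase were added for 60 min at 4 °C before ultracentrifugation. The supernatant underwent TMT labelling and LC-MS/MS, and vsn-normalised intensities were expressed as fold change against the detergent-processed vehicle in each replicate.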

± gives the standard deviation of the averaged measurements. Only a part is listed here, and it is no random draw. Most entries show no effect beyond the scatter of the controls.

In the case of “E7EUY3 and related entries (UniProt P05166)”, the NP40-soluble protein abundance was determined as 0.979 ± 0.022 (concentration: 0.1mM) and 0.97 ± 0.023 (concentration: 0.5mM).

As to “F8W7Q4 and related entries (UniProt Q96A26)”, the NP40-soluble protein abundance (concentration: 0.1mM) was determined as 1.01 ± 0.041 and the NP40-soluble protein abundance (concentration: 0.5mM) is 1.05 ± 0.094.

In the case of “E9PKQ5 and related entries (UniProt Q9GZT6)”, the NP40-soluble protein abundance was 1 ± 0.025 (concentration: 0.1mM) and 0.999 ± 0.049 (concentration: 0.5mM).

With “F5H2B9 and related entries (UniProt Q9BZF9)”, the NP40-soluble protein abundance amounted to 0.986 ± 0.064 (concentration: 0.1mM) and 0.974 ± 0.016 (concentration: 0.5mM).

For “E7EX90 and related entries (UniProt Q14203)”, the NP40-soluble protein abundance was found to be 0.997 ± 0.027 (concentration: 0.1mM) and 1 ± 0.046 (concentration: 0.5mM).

In the case of “E9PPG8 and related entries (UniProt Q53FT3)”, the NP40-soluble protein abundance is, setting by setting: (concentration: 0.1mM) 0.992 ± 0.025; (concentration: 0.5mM) 0.9613 ± 0.0054.

Consider “E9PQL0 and related entries (UniProt Q86UB9)”, for which the NP40-soluble protein abundance amounted to 1 ± 0.015 (concentration: 0.1mM) and 0.997 ± 0.012 (concentration: 0.5mM).

In the case of “E7EQR4 and related entries (UniProt P15311)”, the NP40-soluble protein abundance (concentration: 0.1mM) was 0.981 ± 0.013 and the NP40-soluble protein abundance (concentration: 0.5mM) was determined as 1.03 ± 0.05.

In the case of “F5GZ97 and related entries (UniProt Q9Y3C0)”, the NP40-soluble protein abundance is, setting by setting: (concentration: 0.1mM) 1.01 ± 0.041; (concentration: 0.5mM) 1.01 ± 0.022.

For the target “E9PH64 and related entries (UniProt Q9Y6M9)”, the NP40-soluble protein abundance (concentration: 0.1mM) was 1.02 ± 0.057 and the NP40-soluble protein abundance (concentration: 0.5mM) amounted to 1.06 ± 0.12.

Regarding “E9PF46 and related entries (UniProt P14621)”, the NP40-soluble protein abundance came out at 0.973 ± 0.028 (concentration: 0.1mM) and 1.04 ± 0.045 (concentration: 0.5mM).

As for “F8W8G5 and related entries (UniProt P10242)”, the NP40-soluble protein abundance (concentration: 0.1mM) turned out to be 1.02 ± 0.043 and the NP40-soluble protein abundance (concentration: 0.5mM) came out at 0.998 ± 0.031.

With “E9PF19 and related entries (UniProt Q9Y4P3)”, the NP40-soluble protein abundance by setting is: (concentration: 0.1mM) 0.974 ± 0.026; (concentration: 0.5mM) 1 ± 0.072.

As for “F8W8Z9 and related entries (UniProt Q8N4H5)”, the NP40-soluble protein abundance came out at 1.0126 ± 0.0002 (concentration: 0.1mM) and 1.02 ± 0.049 (concentration: 0.5mM).

In the case of “E9PJI0 and related entries (UniProt Q5JPF3)”, the NP40-soluble protein abundance by setting is: (concentration: 0.1mM) 0.975 ± 0.033; (concentration: 0.5mM) 0.949 ± 0.029.

Take “E9PIV2 and related entries (UniProt P24001)”: the NP40-soluble protein abundance (concentration: 0.1mM) is 0.9885 ± 0.0019 and the NP40-soluble protein abundance (concentration: 0.5mM) was determined as 1.01 ± 0.012.

For the target “F8VXC8 and related entries (UniProt Q8TAQ2)”, the NP40-soluble protein abundance is 1.004 ± 0.0082 (concentration: 0.1mM) and 1.02 ± 0.043 (concentration: 0.5mM).

For the target “E9PP16 and related entries (UniProt Q8ND30)”, the NP40-soluble protein abundance runs as follows: (concentration: 0.1mM) 0.999 ± 0.027; (concentration: 0.5mM) 0.993 ± 0.019.

“F8WAE6 and related entries (UniProt Q86YW9)”: the NP40-soluble protein abundance reads like this: (concentration: 0.1mM) 0.97623 ± 0.00033; (concentration: 0.5mM) 0.964 ± 0.041.

As for “E9PCG9 and related entries (UniProt Q02338)”, the NP40-soluble protein abundance (concentration: 0.1mM) came to 1.03 ± 0.039 and the NP40-soluble protein abundance (concentration: 0.5mM) is 0.962 ± 0.067.

“F8VXK3 and related entries (UniProt Q9NPF2)”: the NP40-soluble protein abundance runs as follows: (concentration: 0.1mM) 0.994 ± 0.015; (concentration: 0.5mM) 0.969 ± 0.015.

For the target “E7EUI8 and related entries (UniProt P11413)”, the NP40-soluble protein abundance (concentration: 0.1mM) was determined as 1.04 ± 0.042 and the NP40-soluble protein abundance (concentration: 0.5mM) was 1 ± 0.09.

Regarding “E7EN32 and related entries (UniProt O00255)”, the NP40-soluble protein abundance was 1.02 ± 0.023 (concentration: 0.1mM) and 1.08 ± 0.036 (concentration: 0.5mM).

With “E7EVC7 and related entries (UniProt Q676U5)”, the NP40-soluble protein abundance by setting is: (concentration: 0.1mM) 0.972 ± 0.033; (concentration: 0.5mM) 0.978 ± 0.04.

For E7EQ69 (UniProt Q9GZZ1), the NP40-soluble protein abundance (concentration: 0.1mM) turned out to be 0.998 ± 0.022 and the NP40-soluble protein abundance (concentration: 0.5mM) was 1.04 ± 0.033.

As for “F5H0U5 and related entries (UniProt Q9NZD2)”, the NP40-soluble protein abundance (concentration: 0.1mM) was found to be 1 ± 0.097 and the NP40-soluble protein abundance (concentration: 0.5mM) is 0.996 ± 0.075.

Regarding “F8W9L6 and related entries (UniProt Q12912)”, the NP40-soluble protein abundance reads like this: (concentration: 0.1mM) 0.995 ± 0.027; (concentration: 0.5mM) 0.966 ± 0.016.

Regarding “E9PHY5 and related entries (UniProt O43491)”, the NP40-soluble protein abundance came to 0.975 ± 0.021 (concentration: 0.1mM) and 1 ± 0.029 (concentration: 0.5mM).

As to “F8W1A0 and related entries (UniProt P36873)”, the NP40-soluble protein abundance by setting is: (concentration: 0.1mM) 0.996 ± 0.014; (concentration: 0.5mM) 0.962 ± 0.022.

Turning to “E7EQV9 and related entries (UniProt P61313)”, the NP40-soluble protein abundance is, setting by setting: (concentration: 0.1mM) 1.08 ± 0.062; (concentration: 0.5mM) 1.04 ± 0.057.

Take “E9PMC9 and related entries (UniProt Q7Z589)”: the NP40-soluble protein abundance (concentration: 0.1mM) amounted to 0.986 ± 0.036 and the NP40-soluble protein abundance (concentration: 0.5mM) came out at 0.997 ± 0.047.

For the target “F8WDV0 and related entries (UniProt Q9UI26)”, the NP40-soluble protein abundance (concentration: 0.1mM) came to 1 ± 0.065 and the NP40-soluble protein abundance (concentration: 0.5mM) amounted to 0.998 ± 0.083.

“E9PRK7 and related entries (UniProt Q8N8R7)”: the NP40-soluble protein abundance by setting is: (concentration: 0.1mM) 0.9714 ± 0.0044; (concentration: 0.5mM) 1.02 ± 0.026.

For “E9PEN0 and related entries (UniProt Q8WYH8)”, the NP40-soluble protein abundance (concentration: 0.1mM) came to 1.01 ± 0.013 and the NP40-soluble protein abundance (concentration: 0.5mM) turned out to be 0.9987 ± 0.0027.

As for “F5H5P4 and related entries (UniProt P15498)”, the NP40-soluble protein abundance (concentration: 0.1mM) was determined as 1.01 ± 0.031 and the NP40-soluble protein abundance (concentration: 0.5mM) was 0.982 ± 0.053.

With “F8VQE1 and related entries (UniProt Q9UHB6)”, the NP40-soluble protein abundance runs as follows: (concentration: 0.1mM) 1.04 ± 0.022; (concentration: 0.5mM) 1.12 ± 0.017.

Consider “F5H5U2 and related entries (UniProt Q8NHQ9)”, for which the NP40-soluble protein abundance is 1.02 ± 0.044 (concentration: 0.1mM) and 1.02 ± 0.02 (concentration: 0.5mM).

As for “F8VTV8 and related entries (UniProt P11802)”, the NP40-soluble protein abundance came out at 0.99 ± 0.013 (concentration: 0.1mM) and 1.01 ± 0.016 (concentration: 0.5mM).

“E5RIH5 and related entries (UniProt Q6NXR4)”: the NP40-soluble protein abundance is, setting by setting: (concentration: 0.1mM) 0.97 ± 0.046; (concentration: 0.5mM) 0.96 ± 0.043.

Consider “F5H610 and related entries (UniProt Q9Y478)”, for which the NP40-soluble protein abundance reads like this: (concentration: 0.1mM) 0.989 ± 0.047; (concentration: 0.5mM) 0.971 ± 0.061.

As to “G3V3H3 and related entries (UniProt Q07866)”, the NP40-soluble protein abundance (concentration: 0.1mM) was 0.971 ± 0.038 and the NP40-soluble protein abundance (concentration: 0.5mM) was 1.01 ± 0.03.

Take “E7EX17 and related entries (UniProt P23588)”: the NP40-soluble protein abundance was found to be 0.985 ± 0.037 (concentration: 0.1mM) and 1.02 ± 0.07 (concentration: 0.5mM).

Turning to “E9PJ55 and related entries (UniProt Q9NUJ3)”, the NP40-soluble protein abundance (concentration: 0.1mM) came out at 0.997 ± 0.056 and the NP40-soluble protein abundance (concentration: 0.5mM) came out at 1.02 ± 0.067.
